Experimental findings from patent US20230009539A1 are described below.

The target in the experiment is Dcp2 (mouse). The experiment can be described thus: co-immunoprecipitation of Act1 from MEFs, IL17 0, 15, 30, 60, 180 min, with DMSO or the inhibitor MRT67307, Western blot.

These are yes or no findings as the source states them, for the method shown. In cells and extracts the contact can be indirect. Binding calls can cover weak binding; strength is not graded here.

B1: Act1 (MEFs, immunoprecipitated with anti-Act1) (protein, mouse (MEFs), UniProt Q8N7N6 1-555, looked up)
chain: MNRSIPVEVDESEPFPSQLLKPIPEYSPEEELEPPAPNTRNMAPSSLSVLQCPPLKLANHQPVSQQVTCLRAKVLEEGEASFFRRHPELGKDISSCSSGASEPESELGALPPEHRFTLTEKRNRWLGSQLSAASPDTGHESDKSDPSLPNALADSFSGGQEMMPRPRPRPGPHRHRAAPDVPTIDTGYDSQPQDVLGIRQLERPLPLTSSCYLQDLPGPLRSRELPPQFELERYPMNAQLLPPHPSPQAPWNCQYYCPGGPYHHQVPHGHGYPPAAAYQQVLQPALPGQVLPGARARGPRPVQKVILNDSSPQDQEERPAQRDFSFPRLPRDQLYRPPSNGVEAPEESLDLPAELRPHGPQAPSLAAVPRPPSNPLARGTLRTSNLPEELRKVFITYSMDTAMEVVKFVNFLLVNGFQTAIDIFEDRIRGIDIIKWMERYLRDKTVMIIVAISPKYKQDVEGAESQLDEDEHGLHTKYIHRMMQIEFISQGSMNFRFIPVLFPNAKKEHVPTWLQNTHVYSWPKNKKNILLRLLREEEYVAPPRGPLPTLQVVPL
Regarding B1, the binding entry is “binds”.
